Laboratory results published in patent US20170348337A1, “MULTIFUNCTIONAL MEMBRANE-ACTIVE AMINOGLYCOSIDE-PEPTIDE CONJUGATES” (priority 2014, published 2017).
At least one peptide structure holds a part that was inferred or is arguable (an end, a ring closure or a residue). Residues, ends and D or L forms follow the SMILES beside them.

Experiments:
[1] = tested on: S. aureus S113 persister cells; assay: persister cell plate killing assay; assay type: cell-based, Staphylococcus aureus
Description: Procedure for preparing S. aureus SA113 and E. coli Dh5α persister cells were based on previous protocols. Cells from freshly streaked agar plates were inoculated in 1 mL TSB and incubated 16 h at 37° C. in a shaker incubator to obtain stationary phase cultures. Non-persister cells were eliminated by adding ampicillin to a final concentration of 100 μg/mL, followed by 3 h incubation at 37° C.
S. aureus cells were diluted 10× into 10 mM Pipes at pH 7.4 buffer for a bacteria stock solution of roughly 10^9 CFU/mL. 20 μL S. aureus suspension was introduced into 180 μL Pipes buffer containing various concentrations of antibiotic (Pentobra, tobramycin) in 96 well plates for a total of ˜10^8 CFU/well. The plates were sealed with parafilm, loaded onto microplate shakers and placed in 37° C. incubator for 1.5 h. After incubation, 10-fold serial dilutions were made in Pipes buffer. Half of each dilution (100 μL) was spotted onto LB agar plates and incubated overnight at 37° C. to yield visible colonies. The S. aureus persister assays were performed in triplicate. The data shown are averages from two independent trials and were representative of the three assays.
The bactericidal effects of Pentobra against persistent bacteria were investigated with plate killing assays. Model Gram positive (Staphylococcus aureus S113) and Gram negative (Escherichia coli Dh5α) bacteria prepared in a persistent state were incubated for 1.5 h with varying concentrations of Pentobra or tobramycin (FIGS. 5A-5B). […] At higher concentrations the differences between Pentobra and tobramycin became even greater, with 6.4 μM and 25.7 μM Pentobra producing four-log and six-log reduction in cell counts, respectively.

[2] = synchrotron small angle X-ray scattering (SAXS) of model membranes
Description: Briefly, DOPE and DOPS lyophilized lipids from Avanti Polar lipids were used without further purification. SUVs were prepared by sonication. Stock solutions of DOPE and DOPS were prepared in chloroform at ˜20 mg/g. Mixtures of these lipids were prepared at molar ratios, so DOPE/DOPS=80/20 corresponded to a 4:1 lipid ratio. Chloroform was evaporated under N2, and the mixtures were dried further by overnight desiccation under vacuum. The dried lipids were resuspended the next day in 100 mM NaCl. Solutions were incubated at 37° C. for 18 h and then sonicated until clear. SUVs were obtained by extrusion (0.2 μm pore Nucleopore filter).
Pentobra and tobramycin stock solutions were prepared by dissolving the molecules in 100 mM NaCl. Lipids were thoroughly mixed with Pentobra/tobramycin at specific molecule to lipid ratios (P/L) in 100 mM NaCl. Sample solutions were hermetically sealed in quartz-glass capillaries (Hilgenberg GmbH, Mark-tubes, code no: 4017515). Synchrotron SAXS experiments were conducted at the Stanford Synchrotron Radiation Laboratory (BL 4-2). Monochromatic X-rays with 9 keV energy were used. Scattering was collected using a Rayonix MX225-HE detector (pixel size 73.2 μm). Samples were also measured at the California NanoSystems Institute (CNSI) at UCLA. […] Identical samples were prepared and measured at different times and multiple sources to ensure consistency between samples. […]

[3] = tested on: bioluminescent Staphylococcus aureus; assay: in vivo murine implantation (implant infection) model; design: species or system lysEGFP mice; settings: p<0.05
Description: Methods: Survival surgery was performed in which circular orthopedic-grade titanium disks were implanted subcutaneously on the backs of 25 lysEGFP mice. Disks were coated in poly-methyl-methacrylate (PMMA) cement mixed with either Pentobra, Tobramycin, or no antibiotic (control). The disks were inoculated with 1×10^7 colony-forming units (CFU) of bioluminescent Staphylococcus aureus. Bacterial burden and neutrophil inflammation were followed via bioluminescent and fluorescent imaging, respectively, on post-operative days (POD) 0, 1, 3, and 5. Implants and surrounding tissue were subsequently removed and cultured. Statistical assessment of data was performed via ANOVA analysis.

Q: Which “reduction in CFU compared with equivalent molar concentration of tobramycin” value ([1]; 1.6 μM, 1.5 h) does the source give for `CC[C@H](C)[C@H](NC(=O)[C@H](CCCCN)NC(=O)[C@@H](NC(=O)[C@H](CCC(N)=O)NC(=O)[C@H](CCCNC(=N)N)NC(=O)CCC(=O)OC[C@H]1O[C@H](O[C@@H]2[C@@H](O)[C@H](O[C@H]3O[C@H](CN)[C@@H](O)C[C@H]3N)[C@@H](N)C[C@H]2N)[C@H](O)[C@@H](N)[C@@H]1O)[C@@H](C)CC)C(=O)N[C@@H](Cc1c[nH]c2ccccc12)C(=O)N[C@@H](Cc1ccccc1)C(=O)N[C@@H](CCC(N)=O)C(=O)N[C@@H](CC(N)=O)C(=O)N[C@@H](CCCNC(=N)N)C(=O)N[C@@H](CCCNC(=N)N)C(=O)N[C@@H](Cc1c[nH]c2ccccc12)C(=O)O` [Pentobra] (HELM PEPTIDE1{[NC[C@H]1O[C@H](O[C@H]2[C@H](O)[C@@H](O[C@H]3O[C@H](COC(=O)CCC(=O)[*:2])[C@@H](O)[C@H](N)[C@H]3O)[C@H](N)C[C@@H]2N)[C@H](N)C[C@@H]1O].R.Q.I.K.I.W.F.Q.N.R.R.W}$$$$V2.0) here?
A: The value was “four”.

Q: What about the “reduction in cell counts” value ([1]; 6.4 μM, 1.5 h) of the same compound?
A: Its value is “four”.

Q: What about the “reduction in cell counts” value ([1]; 25.7 μM, 1.5 h) of the same compound?
A: The value was “six”.

Q: What about the “killing activity against persister cells” value ([1]; 1.5 h, varying concentrations) of the same compound?
A: Its value is “dose dependent bactericidal activity”.

Q: What about the “reduction in cell count” value ([1]; >6.4 μM) of the same compound?
A: Its value is > 4 log.

Q: And the “membrane selectivity (bacterial vs mammalian membranes)” value [2]?
A: The value was “selectively permeated membranes enriched in negative spontaneous curvature lipids”.

Q: What about the “induced membrane curvature / phase (negative Gaussian curvature, NGC)” value ([2]; DOPE/DOPS=80/20, Pentobra to lipid 1/80, tobramycin to lipid 1/20 or 1/40) of the same compound?
A: The value was “presence of a Pn3m cubic phase”.

Q: And the “bacterial bioluminescent signal compared to control group” value ([3]; PMMA-coated titanium disks, subcutaneous, throughout 5 days)?
A: Its value is “significantly lower bacterial bioluminescent signal”.

Q: And the “bioluminescence compared to Tobramycin group” value ([3]; PMMA-coated titanium disks, throughout 5 days)?
A: Its value is “significantly lower bioluminescence”.

Q: And the “neutrophil fluorescence compared to Tobramycin group and control group” value ([3]; all days)?
A: The value was “significantly lower”.
